In one test the target is T1, Myc-UPF1 (wild type) (UniProt Q92900).
T1 sequence: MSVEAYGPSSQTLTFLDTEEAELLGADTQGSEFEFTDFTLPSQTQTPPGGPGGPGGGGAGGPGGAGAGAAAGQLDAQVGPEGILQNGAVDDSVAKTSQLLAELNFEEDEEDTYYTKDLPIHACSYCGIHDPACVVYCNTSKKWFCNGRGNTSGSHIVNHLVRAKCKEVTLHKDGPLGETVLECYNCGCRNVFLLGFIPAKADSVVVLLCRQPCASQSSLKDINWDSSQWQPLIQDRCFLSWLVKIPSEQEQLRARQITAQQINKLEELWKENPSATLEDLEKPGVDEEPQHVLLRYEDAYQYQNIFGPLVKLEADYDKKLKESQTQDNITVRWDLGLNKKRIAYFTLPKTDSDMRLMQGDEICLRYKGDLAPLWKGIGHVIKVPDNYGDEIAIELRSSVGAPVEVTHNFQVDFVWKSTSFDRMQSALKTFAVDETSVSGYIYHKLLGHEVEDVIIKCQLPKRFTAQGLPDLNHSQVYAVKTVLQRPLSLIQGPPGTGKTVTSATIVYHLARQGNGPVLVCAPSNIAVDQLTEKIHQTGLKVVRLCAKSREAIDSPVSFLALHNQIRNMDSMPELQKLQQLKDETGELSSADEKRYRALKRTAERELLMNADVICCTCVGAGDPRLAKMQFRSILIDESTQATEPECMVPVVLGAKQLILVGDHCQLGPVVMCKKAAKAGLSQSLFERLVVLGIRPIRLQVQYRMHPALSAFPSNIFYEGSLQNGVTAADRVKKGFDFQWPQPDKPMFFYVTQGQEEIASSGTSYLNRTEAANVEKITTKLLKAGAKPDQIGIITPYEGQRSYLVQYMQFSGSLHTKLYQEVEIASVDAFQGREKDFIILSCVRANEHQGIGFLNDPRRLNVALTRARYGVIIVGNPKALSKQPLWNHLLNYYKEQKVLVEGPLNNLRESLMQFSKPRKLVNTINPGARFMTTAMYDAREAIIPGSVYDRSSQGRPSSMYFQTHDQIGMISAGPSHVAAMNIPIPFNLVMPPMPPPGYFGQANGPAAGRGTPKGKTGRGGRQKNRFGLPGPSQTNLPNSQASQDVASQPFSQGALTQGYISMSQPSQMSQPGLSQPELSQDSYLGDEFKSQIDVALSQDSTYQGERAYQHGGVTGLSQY
Description: co-IP; HEK293T transfected with Strep-tagged capsid and Myc-UPF1 (wild type or mutant), harvested at 48 hpt; immunoprecipitation with anti-Myc tag; blot for capsid.

In test [1] the target is T2, Myc-UPF1-G495R/G497E (ATPase/helicase mutant) (UniProt Q92900).
T2 sequence: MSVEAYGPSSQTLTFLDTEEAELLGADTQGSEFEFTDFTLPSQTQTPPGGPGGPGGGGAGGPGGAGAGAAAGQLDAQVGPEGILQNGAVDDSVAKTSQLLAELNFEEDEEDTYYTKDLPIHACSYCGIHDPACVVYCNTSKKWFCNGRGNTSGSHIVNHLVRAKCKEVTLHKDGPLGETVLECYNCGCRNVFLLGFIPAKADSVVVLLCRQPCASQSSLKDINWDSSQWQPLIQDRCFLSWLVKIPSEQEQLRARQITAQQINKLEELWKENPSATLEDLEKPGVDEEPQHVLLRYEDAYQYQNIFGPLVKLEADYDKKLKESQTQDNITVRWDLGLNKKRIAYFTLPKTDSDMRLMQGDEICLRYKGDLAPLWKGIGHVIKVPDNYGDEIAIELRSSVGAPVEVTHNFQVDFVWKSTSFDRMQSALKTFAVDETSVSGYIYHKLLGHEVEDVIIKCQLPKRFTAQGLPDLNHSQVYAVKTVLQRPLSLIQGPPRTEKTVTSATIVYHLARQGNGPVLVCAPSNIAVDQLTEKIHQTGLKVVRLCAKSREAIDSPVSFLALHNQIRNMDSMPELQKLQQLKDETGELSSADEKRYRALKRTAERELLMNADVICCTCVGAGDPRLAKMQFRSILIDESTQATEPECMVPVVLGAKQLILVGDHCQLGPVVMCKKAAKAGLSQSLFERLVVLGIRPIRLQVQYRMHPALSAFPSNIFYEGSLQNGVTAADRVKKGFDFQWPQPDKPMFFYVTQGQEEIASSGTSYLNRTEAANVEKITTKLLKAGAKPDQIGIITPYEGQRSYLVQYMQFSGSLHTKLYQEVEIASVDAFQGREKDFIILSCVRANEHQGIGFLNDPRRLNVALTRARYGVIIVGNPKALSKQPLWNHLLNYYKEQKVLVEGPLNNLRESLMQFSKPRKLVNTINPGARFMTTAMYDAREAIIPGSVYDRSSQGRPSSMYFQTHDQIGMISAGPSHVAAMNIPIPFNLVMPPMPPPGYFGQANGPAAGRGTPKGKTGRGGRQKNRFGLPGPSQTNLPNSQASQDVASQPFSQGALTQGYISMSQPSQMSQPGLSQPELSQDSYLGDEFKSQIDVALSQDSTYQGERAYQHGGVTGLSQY
The description is as above.

Test [2] concerns the target T3, Myc-UPF1-C126S (RNA-binding mutant) (UniProt Q92900).
T3 sequence: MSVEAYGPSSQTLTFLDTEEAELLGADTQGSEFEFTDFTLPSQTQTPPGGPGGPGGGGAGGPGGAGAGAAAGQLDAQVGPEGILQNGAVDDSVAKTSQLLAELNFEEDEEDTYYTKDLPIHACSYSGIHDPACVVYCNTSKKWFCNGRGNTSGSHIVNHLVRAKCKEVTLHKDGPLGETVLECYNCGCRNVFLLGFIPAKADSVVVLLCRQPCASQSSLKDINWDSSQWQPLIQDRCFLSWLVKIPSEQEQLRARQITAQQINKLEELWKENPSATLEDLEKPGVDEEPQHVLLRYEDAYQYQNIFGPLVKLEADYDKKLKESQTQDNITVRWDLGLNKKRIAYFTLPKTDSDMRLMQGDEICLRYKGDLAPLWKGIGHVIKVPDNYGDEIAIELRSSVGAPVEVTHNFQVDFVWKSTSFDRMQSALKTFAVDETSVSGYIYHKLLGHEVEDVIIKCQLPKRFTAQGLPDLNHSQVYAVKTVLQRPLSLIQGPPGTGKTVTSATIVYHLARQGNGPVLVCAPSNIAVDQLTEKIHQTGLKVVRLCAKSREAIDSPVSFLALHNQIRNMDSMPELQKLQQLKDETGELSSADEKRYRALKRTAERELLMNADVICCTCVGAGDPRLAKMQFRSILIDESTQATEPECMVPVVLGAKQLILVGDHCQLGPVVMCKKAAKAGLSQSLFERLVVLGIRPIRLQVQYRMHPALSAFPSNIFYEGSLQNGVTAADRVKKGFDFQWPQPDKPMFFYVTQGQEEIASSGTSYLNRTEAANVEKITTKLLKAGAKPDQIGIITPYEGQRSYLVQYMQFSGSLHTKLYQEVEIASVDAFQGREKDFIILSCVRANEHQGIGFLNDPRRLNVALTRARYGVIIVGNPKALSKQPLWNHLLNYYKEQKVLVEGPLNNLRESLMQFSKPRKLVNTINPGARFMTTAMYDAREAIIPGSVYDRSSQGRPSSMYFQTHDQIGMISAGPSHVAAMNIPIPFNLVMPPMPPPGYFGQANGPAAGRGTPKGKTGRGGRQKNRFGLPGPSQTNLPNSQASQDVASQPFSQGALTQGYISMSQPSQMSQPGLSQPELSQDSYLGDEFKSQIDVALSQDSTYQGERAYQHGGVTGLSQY
Described as above.

The target in test [3] is Flag-tagged ZIKV capsid (H/PF/2013, Asian lineage) (Zika virus (H/PF/2013, Asian lineage)). Description: co-IP; HEK293T transfected with vector or Flag-tagged capsid, harvested at 48 hpt; RIPA or IP lysis buffer; Flag M2 agarose overnight; blots for endogenous UPF3B or UPF1.

These are yes or no findings as the source states them, for the method shown. Binding seen in cells or lysates may run through a third protein. Binding calls can cover weak binding; strength is not graded here. For some assays here: Sequences can lack the tags named with a protein.

Consider “French Polynesian ZIKV capsid (H/PF/2013), C-terminal 2xStrep II tag”, for which the binding entry (with Myc-UPF1 (wild type); in test [1]; in test [2]) was “binds” each time.

B1: UPF3B, endogenous (protein, UniProt Q9BZI7 1-483)
chain: MKEEKEHRPKEKRVTLLTPAGATGSGGGTSGDSSKGEDKQDRNKEKKEALSKVVIRRLPPTLTKEQLQEHLQPMPEHDYFEFFSNDTSLYPHMYARAYINFKNQEDIILFRDRFDGYVFLDNKGQEYPAIVEFAPFQKAAKKKTKKRDTKVGTIDDDPEYRKFLESYATDNEKMTSTPETLLEEIEAKNRELIAKKTTPLLSFLKNKQRMREEKREERRRREIERKRQREEERRKWKEEEKRKRKDIEKLKKIDRIPERDKLKDEPKIKVHRFLLQAVNQKNLLKKPEKGDEKELDKREKAKKLDKENLSDERASGQSCTLPKRSDSELKDEKPKRPEDESGRDYREREREYERDQERILRERERLKRQEEERRRQKERYEKEKTFKRKEEEMKKEKDTLRDKGKKAESTESIGSSEKTEKKEEVVKRDRIRNKDRPAMQLYQPGARSRNRLCPPDDSTKSGDSAAERKQESGISHRKEGGEE
Turning to B1, in test [3], the binding entry is recorded as “binds”.

B2: up-frameshift protein 1 (UPF1), endogenous (protein, UniProt Q92900 1-1129)
chain: MSVEAYGPSSQTLTFLDTEEAELLGADTQGSEFEFTDFTLPSQTQTPPGGPGGPGGGGAGGPGGAGAGAAAGQLDAQVGPEGILQNGAVDDSVAKTSQLLAELNFEEDEEDTYYTKDLPIHACSYCGIHDPACVVYCNTSKKWFCNGRGNTSGSHIVNHLVRAKCKEVTLHKDGPLGETVLECYNCGCRNVFLLGFIPAKADSVVVLLCRQPCASQSSLKDINWDSSQWQPLIQDRCFLSWLVKIPSEQEQLRARQITAQQINKLEELWKENPSATLEDLEKPGVDEEPQHVLLRYEDAYQYQNIFGPLVKLEADYDKKLKESQTQDNITVRWDLGLNKKRIAYFTLPKTDSGNEDLVIIWLRDMRLMQGDEICLRYKGDLAPLWKGIGHVIKVPDNYGDEIAIELRSSVGAPVEVTHNFQVDFVWKSTSFDRMQSALKTFAVDETSVSGYIYHKLLGHEVEDVIIKCQLPKRFTAQGLPDLNHSQVYAVKTVLQRPLSLIQGPPGTGKTVTSATIVYHLARQGNGPVLVCAPSNIAVDQLTEKIHQTGLKVVRLCAKSREAIDSPVSFLALHNQIRNMDSMPELQKLQQLKDETGELSSADEKRYRALKRTAERELLMNADVICCTCVGAGDPRLAKMQFRSILIDESTQATEPECMVPVVLGAKQLILVGDHCQLGPVVMCKKAAKAGLSQSLFERLVVLGIRPIRLQVQYRMHPALSAFPSNIFYEGSLQNGVTAADRVKKGFDFQWPQPDKPMFFYVTQGQEEIASSGTSYLNRTEAANVEKITTKLLKAGAKPDQIGIITPYEGQRSYLVQYMQFSGSLHTKLYQEVEIASVDAFQGREKDFIILSCVRANEHQGIGFLNDPRRLNVALTRARYGVIIVGNPKALSKQPLWNHLLNYYKEQKVLVEGPLNNLRESLMQFSKPRKLVNTINPGARFMTTAMYDAREAIIPGSVYDRSSQGRPSSMYFQTHDQIGMISAGPSHVAAMNIPIPFNLVMPPMPPPGYFGQANGPAAGRGTPKGKTGRGGRQKNRFGLPGPSQTNLPNSQASQDVASQPFSQGALTQGYISMSQPSQMSQPGLSQPELSQDSYLGDEFKSQIDVALSQDSTYQGERAYQHGGVTGLSQY
In the case of B2, in test [3], the binding result is recorded as “binds”.
